The other results are listed elsewhere or left out. The data scatter; read single values as rough.
Assays:
[1] = compound: ClCC(=O)N[C@@H]1CCCc2ccccc12; test: log2 mean competition ratio of IA-DTB cysteine labelling (DMSO/compound) (log2 ratio); higher = stronger cysteine engagement by compound; conditions: treatment time: 4 h, cell line lysate: HEK293T
Description: (§1)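 IA-DTB competitive cysteine chemoproteomics in HEK293T RIPA lysate. Lysates were treated with compound 29 or 30 at 50 or 200 µM for 4 h, then IA-DTB (500 µM, 1 h), trypsin-digested, NeutrAvidin-enriched and analysed by diaPASEF. Competition ratio = intensity DMSO / intensity compound (n=4 treated, n=64 DMSO); binding: mean log2 CR ≥ 1 and p ≤ 0.05 plus QC filters. Target is the cysteine site.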

Chains of the proteins cited; added tags and fusions are not shown. A change or cut given only in a name is not applied to a line headed by its entry. A line that says so, or that is headed by a name, gives the form on record, which may keep a tag or linker. Residues count along the entry.
UniProt Q9BX10: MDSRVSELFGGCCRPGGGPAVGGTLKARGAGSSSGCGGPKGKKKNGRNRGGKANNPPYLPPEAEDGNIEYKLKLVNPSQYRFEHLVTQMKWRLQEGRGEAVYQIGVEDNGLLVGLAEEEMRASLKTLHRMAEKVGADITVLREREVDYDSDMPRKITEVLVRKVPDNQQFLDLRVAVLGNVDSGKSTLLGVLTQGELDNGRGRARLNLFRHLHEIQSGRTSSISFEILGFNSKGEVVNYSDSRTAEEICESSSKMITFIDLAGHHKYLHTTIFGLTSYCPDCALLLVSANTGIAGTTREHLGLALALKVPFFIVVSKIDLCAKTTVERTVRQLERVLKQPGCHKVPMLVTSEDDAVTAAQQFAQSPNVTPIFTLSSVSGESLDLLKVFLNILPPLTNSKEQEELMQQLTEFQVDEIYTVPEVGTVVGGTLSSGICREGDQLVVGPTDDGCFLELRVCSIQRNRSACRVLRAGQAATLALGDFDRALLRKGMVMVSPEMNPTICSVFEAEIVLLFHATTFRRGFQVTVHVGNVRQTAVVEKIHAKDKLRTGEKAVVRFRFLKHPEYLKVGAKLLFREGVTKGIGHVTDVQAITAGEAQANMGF
UniProt Q9ULT8: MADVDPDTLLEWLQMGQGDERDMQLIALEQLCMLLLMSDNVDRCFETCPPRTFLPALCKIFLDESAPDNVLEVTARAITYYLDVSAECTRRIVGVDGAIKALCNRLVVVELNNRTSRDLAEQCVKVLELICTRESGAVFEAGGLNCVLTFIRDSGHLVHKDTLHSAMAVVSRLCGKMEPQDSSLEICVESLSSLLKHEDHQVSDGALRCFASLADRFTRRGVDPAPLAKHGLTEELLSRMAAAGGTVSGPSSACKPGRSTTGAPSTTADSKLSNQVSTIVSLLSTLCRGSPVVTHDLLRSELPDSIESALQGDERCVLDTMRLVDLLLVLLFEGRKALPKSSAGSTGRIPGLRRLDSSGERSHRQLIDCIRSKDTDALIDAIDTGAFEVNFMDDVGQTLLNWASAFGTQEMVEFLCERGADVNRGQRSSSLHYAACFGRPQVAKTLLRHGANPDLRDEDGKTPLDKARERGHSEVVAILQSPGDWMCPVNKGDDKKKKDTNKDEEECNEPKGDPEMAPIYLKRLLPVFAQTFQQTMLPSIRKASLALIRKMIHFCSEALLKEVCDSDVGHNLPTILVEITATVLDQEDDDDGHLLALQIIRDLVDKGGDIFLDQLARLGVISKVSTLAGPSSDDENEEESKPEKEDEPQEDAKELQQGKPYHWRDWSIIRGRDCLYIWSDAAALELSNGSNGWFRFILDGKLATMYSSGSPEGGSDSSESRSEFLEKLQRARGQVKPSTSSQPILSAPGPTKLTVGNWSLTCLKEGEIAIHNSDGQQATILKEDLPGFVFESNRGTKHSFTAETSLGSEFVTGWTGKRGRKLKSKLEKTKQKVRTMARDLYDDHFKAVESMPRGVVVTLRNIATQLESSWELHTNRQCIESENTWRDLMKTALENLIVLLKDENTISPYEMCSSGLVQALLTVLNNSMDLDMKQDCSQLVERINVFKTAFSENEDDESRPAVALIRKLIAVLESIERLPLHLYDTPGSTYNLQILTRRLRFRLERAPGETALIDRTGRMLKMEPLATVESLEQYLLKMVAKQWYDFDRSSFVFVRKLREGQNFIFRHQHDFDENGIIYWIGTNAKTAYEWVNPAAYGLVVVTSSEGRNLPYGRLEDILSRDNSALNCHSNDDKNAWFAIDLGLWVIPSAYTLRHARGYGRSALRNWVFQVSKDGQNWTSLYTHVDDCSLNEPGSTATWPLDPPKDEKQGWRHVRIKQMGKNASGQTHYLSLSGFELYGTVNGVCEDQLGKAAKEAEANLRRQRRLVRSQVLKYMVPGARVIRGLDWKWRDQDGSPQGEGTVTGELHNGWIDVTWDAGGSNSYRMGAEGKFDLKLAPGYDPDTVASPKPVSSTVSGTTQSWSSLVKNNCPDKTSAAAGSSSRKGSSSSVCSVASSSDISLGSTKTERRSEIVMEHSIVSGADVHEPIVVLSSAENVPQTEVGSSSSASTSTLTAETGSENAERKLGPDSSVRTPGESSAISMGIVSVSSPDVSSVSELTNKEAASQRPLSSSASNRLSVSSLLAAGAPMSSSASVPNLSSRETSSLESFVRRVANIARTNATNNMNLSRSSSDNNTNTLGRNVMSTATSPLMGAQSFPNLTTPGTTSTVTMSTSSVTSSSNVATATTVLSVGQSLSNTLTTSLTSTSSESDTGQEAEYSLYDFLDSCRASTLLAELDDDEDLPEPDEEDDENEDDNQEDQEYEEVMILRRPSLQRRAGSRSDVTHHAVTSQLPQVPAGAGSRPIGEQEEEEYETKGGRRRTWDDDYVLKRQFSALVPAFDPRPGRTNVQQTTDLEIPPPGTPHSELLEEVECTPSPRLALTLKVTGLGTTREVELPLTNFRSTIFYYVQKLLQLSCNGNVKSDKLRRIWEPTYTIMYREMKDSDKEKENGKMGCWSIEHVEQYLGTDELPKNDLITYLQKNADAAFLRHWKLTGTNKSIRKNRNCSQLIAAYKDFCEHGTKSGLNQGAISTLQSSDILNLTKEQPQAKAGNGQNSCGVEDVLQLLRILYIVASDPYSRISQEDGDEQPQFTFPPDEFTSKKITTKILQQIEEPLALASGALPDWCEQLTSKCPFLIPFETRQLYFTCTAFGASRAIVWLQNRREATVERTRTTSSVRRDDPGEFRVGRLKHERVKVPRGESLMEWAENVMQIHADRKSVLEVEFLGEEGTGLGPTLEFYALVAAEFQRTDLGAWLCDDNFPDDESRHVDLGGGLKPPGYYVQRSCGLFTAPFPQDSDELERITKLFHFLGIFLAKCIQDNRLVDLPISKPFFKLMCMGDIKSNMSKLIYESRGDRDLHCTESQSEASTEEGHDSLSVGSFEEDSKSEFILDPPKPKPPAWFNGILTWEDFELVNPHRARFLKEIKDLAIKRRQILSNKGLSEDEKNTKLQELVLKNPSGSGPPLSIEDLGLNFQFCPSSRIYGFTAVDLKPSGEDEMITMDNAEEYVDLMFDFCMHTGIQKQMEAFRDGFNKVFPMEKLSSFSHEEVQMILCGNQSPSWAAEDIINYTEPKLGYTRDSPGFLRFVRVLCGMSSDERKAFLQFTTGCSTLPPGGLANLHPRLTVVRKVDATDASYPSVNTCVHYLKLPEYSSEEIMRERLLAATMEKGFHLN
UniProt Q9NYZ3: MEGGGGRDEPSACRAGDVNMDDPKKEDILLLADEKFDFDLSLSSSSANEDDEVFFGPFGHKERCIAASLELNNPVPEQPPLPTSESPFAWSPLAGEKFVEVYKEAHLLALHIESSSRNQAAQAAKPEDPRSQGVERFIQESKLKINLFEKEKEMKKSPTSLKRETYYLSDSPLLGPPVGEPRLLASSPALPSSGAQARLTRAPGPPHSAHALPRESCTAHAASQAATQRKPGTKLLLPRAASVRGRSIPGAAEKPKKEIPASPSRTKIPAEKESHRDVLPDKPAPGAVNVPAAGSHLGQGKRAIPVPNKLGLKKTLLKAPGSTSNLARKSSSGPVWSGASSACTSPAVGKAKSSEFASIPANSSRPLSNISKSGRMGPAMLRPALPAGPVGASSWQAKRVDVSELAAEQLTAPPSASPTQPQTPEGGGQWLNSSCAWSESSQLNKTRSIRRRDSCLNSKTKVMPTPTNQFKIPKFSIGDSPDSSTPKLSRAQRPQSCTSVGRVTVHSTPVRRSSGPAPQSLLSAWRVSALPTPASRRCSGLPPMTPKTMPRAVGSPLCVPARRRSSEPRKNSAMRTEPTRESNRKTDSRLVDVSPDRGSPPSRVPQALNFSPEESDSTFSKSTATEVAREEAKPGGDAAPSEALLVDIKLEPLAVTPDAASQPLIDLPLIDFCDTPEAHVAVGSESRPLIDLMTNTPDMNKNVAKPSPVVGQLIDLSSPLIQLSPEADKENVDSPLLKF
UniProt Q8NCD3, whole entry, looked up: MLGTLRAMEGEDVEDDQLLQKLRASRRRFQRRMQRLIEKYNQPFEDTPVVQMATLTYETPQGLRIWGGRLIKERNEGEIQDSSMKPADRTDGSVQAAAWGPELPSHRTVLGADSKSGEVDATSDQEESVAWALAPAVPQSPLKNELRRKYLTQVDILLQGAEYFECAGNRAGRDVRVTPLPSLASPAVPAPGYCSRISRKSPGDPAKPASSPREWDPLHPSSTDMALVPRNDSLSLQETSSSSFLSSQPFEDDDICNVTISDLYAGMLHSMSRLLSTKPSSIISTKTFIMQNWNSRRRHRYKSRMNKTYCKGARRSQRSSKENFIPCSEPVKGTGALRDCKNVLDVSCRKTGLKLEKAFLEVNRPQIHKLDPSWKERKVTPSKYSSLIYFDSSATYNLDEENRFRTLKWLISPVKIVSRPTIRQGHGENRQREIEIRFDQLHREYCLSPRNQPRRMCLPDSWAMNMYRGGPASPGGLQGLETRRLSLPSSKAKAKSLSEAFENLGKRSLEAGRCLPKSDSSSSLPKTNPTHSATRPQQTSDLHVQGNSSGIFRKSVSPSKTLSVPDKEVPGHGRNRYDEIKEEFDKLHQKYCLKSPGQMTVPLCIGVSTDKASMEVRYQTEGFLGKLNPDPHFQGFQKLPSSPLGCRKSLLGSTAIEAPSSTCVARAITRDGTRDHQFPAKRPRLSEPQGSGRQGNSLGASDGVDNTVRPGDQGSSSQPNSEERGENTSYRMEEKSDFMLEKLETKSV
UniProt Q00839, 638-664: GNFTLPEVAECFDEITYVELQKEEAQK
UniProt Q9NRZ9, 154-175: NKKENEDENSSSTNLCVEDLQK
UniProt Q8WVV9: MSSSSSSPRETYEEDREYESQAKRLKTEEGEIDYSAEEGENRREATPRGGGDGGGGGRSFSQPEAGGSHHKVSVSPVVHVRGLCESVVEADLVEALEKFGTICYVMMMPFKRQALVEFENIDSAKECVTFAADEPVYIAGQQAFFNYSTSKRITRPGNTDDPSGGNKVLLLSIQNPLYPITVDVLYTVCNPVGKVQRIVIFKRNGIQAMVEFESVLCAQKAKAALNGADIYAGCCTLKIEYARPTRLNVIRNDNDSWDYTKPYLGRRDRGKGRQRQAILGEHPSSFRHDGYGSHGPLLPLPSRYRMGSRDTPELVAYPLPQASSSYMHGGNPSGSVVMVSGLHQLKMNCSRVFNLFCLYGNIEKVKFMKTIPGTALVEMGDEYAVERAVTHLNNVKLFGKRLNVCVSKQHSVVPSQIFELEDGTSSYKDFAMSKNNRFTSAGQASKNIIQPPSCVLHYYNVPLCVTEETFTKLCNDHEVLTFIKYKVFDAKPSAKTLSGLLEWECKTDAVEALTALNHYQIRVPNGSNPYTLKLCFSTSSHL
UniProt P04035: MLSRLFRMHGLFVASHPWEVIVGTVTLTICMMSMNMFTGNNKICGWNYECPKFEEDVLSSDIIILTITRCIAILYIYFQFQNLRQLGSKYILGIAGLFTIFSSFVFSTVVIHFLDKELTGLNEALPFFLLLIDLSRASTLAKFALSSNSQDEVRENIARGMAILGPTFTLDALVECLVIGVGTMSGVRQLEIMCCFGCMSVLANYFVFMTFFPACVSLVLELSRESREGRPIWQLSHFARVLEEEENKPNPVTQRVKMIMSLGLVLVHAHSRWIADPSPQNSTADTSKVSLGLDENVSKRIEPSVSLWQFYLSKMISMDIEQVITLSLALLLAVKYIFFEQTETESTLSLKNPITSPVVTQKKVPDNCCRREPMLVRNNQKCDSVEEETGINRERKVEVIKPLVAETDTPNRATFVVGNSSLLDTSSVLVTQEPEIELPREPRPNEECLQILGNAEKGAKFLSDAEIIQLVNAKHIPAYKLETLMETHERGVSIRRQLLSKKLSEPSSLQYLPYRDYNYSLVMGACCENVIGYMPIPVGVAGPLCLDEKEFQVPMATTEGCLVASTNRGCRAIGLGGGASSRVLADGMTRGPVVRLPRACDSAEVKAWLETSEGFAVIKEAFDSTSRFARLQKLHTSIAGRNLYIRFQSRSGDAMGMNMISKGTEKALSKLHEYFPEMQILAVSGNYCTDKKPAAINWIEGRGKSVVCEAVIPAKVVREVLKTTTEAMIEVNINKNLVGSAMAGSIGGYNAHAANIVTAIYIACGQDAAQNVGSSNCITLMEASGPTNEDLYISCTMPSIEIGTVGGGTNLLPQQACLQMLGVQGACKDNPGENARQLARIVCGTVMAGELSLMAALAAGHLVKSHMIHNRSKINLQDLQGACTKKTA
UniProt P30519: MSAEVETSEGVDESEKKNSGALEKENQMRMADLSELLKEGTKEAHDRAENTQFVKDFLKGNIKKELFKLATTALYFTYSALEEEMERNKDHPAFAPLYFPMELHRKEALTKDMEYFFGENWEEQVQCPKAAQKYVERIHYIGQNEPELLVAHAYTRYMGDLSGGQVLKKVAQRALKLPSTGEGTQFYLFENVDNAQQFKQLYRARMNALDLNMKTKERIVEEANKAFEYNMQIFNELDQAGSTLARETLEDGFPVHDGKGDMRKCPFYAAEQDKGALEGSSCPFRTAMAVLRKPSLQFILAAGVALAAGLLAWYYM
HLA-C_(C345,C345,C350,C350,C364,C364), as listed by the source: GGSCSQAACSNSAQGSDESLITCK

[2] = compound: ClCC(=O)N[C@H]1CCCc2ccccc12; test: as above; conditions: treatment time: 4 h, cell line lysate: HEK293T
Description: as §1

Row | Target | log2 mean competition ratio ([1]; 50 µM) | log2 mean competition ratio ([1]; 200 µM) | log2 mean competition ratio ([2]; 50 µM) | log2 mean competition ratio ([2]; 200 µM)
1 | HEATR6 C720 (UniProt Q6AI08) | 0.0919 | 0.105 | -0.572 | -0.0239
2 | HMMR C719 (UniProt O75330) | 0.721 | 0.467 | -0.0135 | 0.528
3 | HMCES C266 (UniProt Q96FZ2) | -0.387 | -0.346 | -0.649 | -0.359
4 | H1-7 C53 (UniProt P35367) | 0.0119 | -0.0641 | 0.289 | 0.0524
5 | GTPBP2 C249 (UniProt Q9BX10) | -0.291 | 0.0956 | -0.218 | 0.127
6 | HECTD1 C58 (UniProt Q9ULT8) | -0.221 | -0.0987 | 0.147 | -0.0702
7 | GTSE1 C198 (UniProt Q9NYZ3) | 0.308 | 0.106 | 0.183 | -0.0257
8 | HECTD4 C1488 | -0.307 | 0.09 | 0.515 | 0.0399
9 | HAUS3 C3 (UniProt Q68CZ6) | -0.127 | 0.0493 | -0.0662 | 0.139
10 | GUCY1B1 C174 | -0.402 | -0.00324 | -0.726 | -0.0585
11 | HECA C434 (UniProt Q9UBI9) | -0.183 | 0.0661 | -0.741 | -0.165
12 | GSTO1 C32 | -0.0315 | -0.328 | 0.829 | -0.109
13 | GTPBP1 C531 (UniProt O00178) | -0.359 | 0.224 | -0.0202 | 0.196
14 | GUF1 C129 (UniProt Q8N442) | 0.206 | -0.129 | 0.541 | -0.128
15 | GTF2I C80 (UniProt P78347) | -0.244 | -0.257 | -0.304 | 0.383
16 | HEATR5B C356 (UniProt Q9P2D3) | 0.164 | 0.347 | -0.066 | 0.0433
17 | HERC2 C2760 (UniProt O95714) | -0.228 | 0.0916 | -0.397 | -0.307
18 | HECTD1 C369 (UniProt Q9ULT8) | -0.19 | 0.287 | 0.00721 | 0.538
19 | HAUS6 C743 (UniProt Q7Z4H7) | 0.00729 | 0.315 | -0.196 | -0.133
20 | HJURP C327 (UniProt Q8NCD3) | -0.0124 | -0.476 | 0.162 | -0.317
21 | HIP1R C650 (UniProt O75146) | -0.181 | 0.0308 | -0.258 | 0.244
22 | HLTF C461 (UniProt Q14527) | -0.0268 | 0.0427 | 0.1 | 0.103

4 entries from above, set out differently:
Row	Target	log2 mean competition ratio ([1]; 50 µM)	log2 mean competition ratio ([1]; 200 µM)	log2 mean competition ratio ([2]; 50 µM)	log2 mean competition ratio ([2]; 200 µM)
7	GTSE1 C198 (UniProt Q9NYZ3)	0.308	0.106	0.183	-0.0257
8	HECTD4 C1488	-0.307	0.09	0.515	0.0399
9	HAUS3 C3 (UniProt Q68CZ6)	-0.127	0.0493	-0.0662	0.139
10	GUCY1B1 C174	-0.402	-0.00324	-0.726	-0.0585

(listing goes on)

Row | Target | log2 mean competition ratio ([1]; 50 µM) | log2 mean competition ratio ([1]; 200 µM) | log2 mean competition ratio ([2]; 50 µM) | log2 mean competition ratio ([2]; 200 µM)
23 | HOOK2 C423 (UniProt Q96ED9) | -0.242 | -0.339 | 0.252 | -0.352
24 | HOXA5 C233 | 0.2 | 0.428 | -0.0862 | 0.19
25 | HIP1 C63 (UniProt O00291) | 0.341 | 0.16 | 0.272 | -0.0196
26 | HEATR1 C631 (UniProt Q9H583) | 0.244 | -0.0667 | -0.336 | -0.219
27 | GTSE1 C436 (UniProt Q9NYZ3) | 0.0865 | 0.248 | 0.0609 | 0.258
28 | HOMEZ C13 (UniProt Q8IX15) | -0.144 | 0.0858 | -0.258 | -0.232
29 | GSTM3 C3 (UniProt P21266) | -0.142 | -0.337 | 0.547 | -0.13
30 | HERC2 C1506 (UniProt O95714) | -0.0877 | -0.252 | 0.113 | -0.0934
31 | GSTM3 C208 (UniProt P21266) | 0.0925 | 0.00325 | -0.048 | -0.0397
32 | HAUS6 C424 (UniProt Q7Z4H7) | 0.227 | 0.305 | -0.125 | 0.219
33 | HK2 C823 (UniProt P52789) | 0.196 | -0.286 | 0.227 | -0.22
34 | HNRNPU C648 (UniProt Q00839) | -0.214 | -0.254 | 0.145 | -0.0554
35 | HOXC10 C47 | – | 0.176 | 0.74 | 0.369
36 | GTF3C1 C1008 (UniProt Q12789) | 0.316 | 0.147 | 0.325 | -0.11
37 | HELLS C169 (UniProt Q9NRZ9) | -0.36 | -0.0674 | -0.108 | -0.148
38 | HLA-B C349 | -0.176 | -0.388 | 0.539 | -0.223
39 | HEATR3 C655 (UniProt Q7Z4Q2) | -0.0507 | 0.362 | 0.0676 | 0.246
40 | HERC5 C302 (UniProt Q9UII4) | -0.0374 | -0.0431 | -0.152 | -0.0127
41 | HMCES C39 (UniProt Q96FZ2) | -0.0291 | -0.117 | -0.135 | -0.141
42 | HNRNPK C145 (UniProt P61978) | -0.236 | -0.0914 | -0.318 | 0.123
43 | HEATR6 C38 (UniProt Q6AI08) | 0.25 | 0.274 | -0.165 | 0.0781
44 | HNRNPLL C505 (UniProt Q8WVV9) | 0.0638 | 0.00426 | -0.175 | -0.041

Row | Target | log2 mean competition ratio ([1]; 50 µM) | log2 mean competition ratio ([1]; 200 µM) | log2 mean competition ratio ([2]; 50 µM) | log2 mean competition ratio ([2]; 200 µM)
45 | HERC4 C175 (UniProt Q5GLZ8) | 0.161 | -0.0924 | -0.032 | -0.0709
46 | HECTD1 C123 (UniProt Q9ULT8) | -0.0521 | -0.111 | -0.109 | -0.0989
47 | GTF2H1 C506 (UniProt P32780) | -0.0261 | 0.351 | 0.96 | 0.482
48 | HOXB6 C88 | -0.238 | -0.591 | -0.339 | -0.38
49 | HMGCR C708 (UniProt P04035) | -0.318 | 0.191 | -0.323 | 0.214
50 | HECTD1 C2071 (UniProt Q9ULT8) | -0.195 | -0.61 | -0.209 | -0.197
51 | GUF1 C338 (UniProt Q8N442) | -0.105 | -0.155 | 0.0212 | -0.0963
52 | HIP1 C613 (UniProt O00291) | -0.113 | -0.145 | -0.214 | -0.135
53 | HAPLN3 C233 | -0.116 | – | 0.259 | 0.365
54 | HOPX C68 | -0.0959 | 0.203 | -0.121 | -0.121
55 | HADHA C322 (UniProt P40939) | -0.357 | -0.172 | -0.288 | -0.133
56 | HAUS1 C156 (UniProt Q96CS2) | -0.197 | -0.136 | -0.0106 | -0.122
57 | HECTD1 C1855 (UniProt Q9ULT8) | 0.552 | 0.198 | 0.131 | 0.198
58 | HERC1 C1941 (UniProt Q15751) | – | -0.048 | 0.0718 | 0.323
59 | HEXB C360 (UniProt P07686) | – | 0.00181 | 0.893 | -0.115
60 | GUSB C644 (UniProt P08236) | -0.2 | 0.00559 | 0.358 | 0.414
61 | GTF3C5 C439 (UniProt Q9Y5Q8) | 0.0888 | 0.33 | -0.0836 | 0.584
62 | HLA-C_(C345,C345,C350,C350,C364,C364) | -0.158 | -0.474 | 0.0416 | -0.566
63 | HDAC1 C408 (UniProt Q13547) | -0.0126 | 0.137 | 0.202 | 0.189
64 | HMGCS1 C406 (UniProt Q01581) | 0.468 | -0.247 | 0.374 | -0.368
65 | HASPIN C219 (UniProt Q8TF76) | 0.0147 | -0.143 | -0.313 | -0.156
66 | HMOX2 C127 (UniProt P30519) | -0.329 | -0.0192 | -0.136 | -0.0919
